Results taken from the supplement of paper PMC8728848.
The list shows a part of the results.

Columns and labels:
Assay in all cases: glycan array binding signal (z-score within array); higher = stronger binding
Conditions in all cases: glycan notation: IUPAC condensed, linker removed; mutation: Y54A
[1] = biological target: GlcNAc(b1-3)Gal(b1-4)GlcNAc(b1-3)Gal(b1-4)GlcNAc(b1-3)Gal(b1-4)GlcNAc(b1-3)Gal(b1-4)GlcNAc(b1-2)[GlcNAc(b1-3)Gal(b1-4)GlcNAc(b1-3)Gal(b1-4)GlcNAc(b1-3)Gal(b1-4)GlcNAc(b1-3)Gal(b1-4)GlcNAc(b1-6)]Man(a1-6)[GlcNAc(b1-3)Gal(b1-4)GlcNAc(b1-3)Gal(b1-4)GlcNAc(b1-3)Gal(b1-4)GlcNAc(b1-3)Gal(b1-4)GlcNAc(b1-2)Man(a1-3)]Man(b1-4)GlcNAc(b1-4)[Fuc(a1-6)]GlcNAc
Outline: (§1)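 Glycan array binding is given as a within-array Z-score, which can be read as non-binding when negative. The arrays, 3228 of them, came from the Consortium for Functional Glycomics database and were retained only where the protein sequence was available. Z-scores were averaged across arrays of the same protein sequence at different concentrations or buffers and across linkers.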

[2] = biological target: GlcNAc(b1-3)Gal(b1-4)GlcNAc(b1-3)Gal(b1-4)GlcNAc(b1-3)GalNAc
Outline: as §1

[3] = biological target: GlcNAc(b1-3)Gal(b1-4)GlcNAc(b1-3)GalNAc
Outline: as §1

[4] = biological target: GlcNAc(b1-3)Gal(b1-4)GlcNAc(b1-3)[GlcNAc(b1-3)Gal(b1-4)GlcNAc(b1-3)]GalNAc
Outline: as §1

[5] = biological target: GlcNAc(b1-3)Gal(b1-4)GlcNAc(b1-6)[Gal(b1-3)]GalNAc
Outline: as §1

[6] = biological target: GlcNAc(b1-3)Gal(b1-4)GlcNAc(b1-6)[GlcNAc(b1-3)Gal(b1-3)]GalNAc
Outline: as §1

[7] = biological target: GlcNAc(b1-3)Gal(b1-4)GlcNAc(b1-6)[GlcNAc(b1-3)]Gal(b1-4)GlcNAc
Outline: as §1

[8] = biological target: GlcNAc(b1-3)GalNAc
Outline: as §1

[9] = biological target: GlcNAc(b1-3)Man
Outline: as §1

[10] = biological target: GlcNAc(b1-3)[GlcNAc(b1-4)][GlcNAc(b1-6)]GlcNAc
Outline: as §1

[11] = biological target: GlcNAc(b1-3)[GlcNAc(b1-6)]Gal(b1-4)GlcNAc
Outline: as §1

[12] = biological target: GlcNAc(b1-3)[GlcNAc(b1-6)]GalNAc
Outline: as §1

[13] = biological target: GlcNAc(b1-4)Gal(b1-4)GlcNAc
Outline: as §1

[14] = biological target: GlcNAc(b1-4)GlcNAc
Outline: as §1

[15] = biological target: GlcNAc(b1-4)GlcNAc(b1-4)GlcNAc
Outline: as §1

[16] = biological target: GlcNAc(b1-4)GlcNAc(b1-4)GlcNAc(b1-4)GlcNAc(b1-4)GlcNAc
Outline: as §1

[17] = biological target: GlcNAc(b1-4)GlcNAc(b1-4)GlcNAc(b1-4)GlcNAc(b1-4)GlcNAc(b1-4)GlcNAc
Outline: as §1

[18] = biological target: GlcNAc(b1-4)[GlcNAc(b1-6)]GalNAc
Outline: as §1

[19] = biological target: GlcNAc(b1-6)Gal(b1-4)GlcNAc
Outline: as §1

[20] = biological target: GlcNAc(b1-6)GalNAc
Outline: as §1

[21] = biological target: GlcNAc6S(b1-3)Gal(b1-4)GlcNAc
Outline: as §1

[22] = biological target: Kdn(a2-3)Gal(b1-3)GalNAc
Outline: as §1

[23] = biological target: Kdn(a2-3)Gal(b1-3)GlcNAc
Outline: as §1

[24] = biological target: Kdn(a2-3)Gal(b1-4)Glc
Outline: as §1

[25] = biological target: Kdn(a2-3)Gal(b1-4)GlcNAc
Outline: as §1

[26] = biological target: Kdn(a2-3)Gal(b1-4)[Fuc(a1-3)]GlcNAc
Outline: as §1

[27] = biological target: Kdn(a2-6)Gal(b1-4)GlcNAc
Outline: as §1

[28] = biological target: Man(a1-2)Man(a1-2)Man(a1-3)Man
Outline: as §1

[29] = biological target: Man(a1-2)Man(a1-2)Man(a1-6)[Man(a1-3)]Man
Outline: as §1

[30] = biological target: Man(a1-2)Man(a1-3)Man
Outline: as §1

[31] = biological target: Man(a1-2)Man(a1-3)[Man(a1-2)Man(a1-6)]Man
Outline: as §1

[32] = biological target: Man(a1-2)Man(a1-3)[Man(a1-2)Man(a1-6)]Man(a1-6)[Man(a1-2)Man(a1-2)Man(a1-3)]Man
Outline: as §1

[33] = biological target: Man(a1-2)Man(a1-3)[Man(a1-2)Man(a1-6)]Man(a1-6)[Man(a1-2)Man(a1-2)Man(a1-3)]Man(b1-4)GlcNAc(b1-4)GlcNAc
Outline: as §1

[34] = biological target: Man(a1-2)Man(a1-3)[Man(a1-6)]Man(a1-6)[Man(a1-2)Man(a1-3)]Man(b1-4)GlcNAc(b1-4)GlcNAc
Outline: as §1

[35] = biological target: Man(a1-2)Man(a1-6)[Man(a1-3)]Man(a1-6)[Man(a1-2)Man(a1-2)Man(a1-3)]Man
Outline: as §1

[36] = biological target: Man(a1-2)Man(a1-6)[Man(a1-3)]Man(a1-6)[Man(a1-2)Man(a1-2)Man(a1-3)]Man(b1-4)GlcNAc(b1-4)GlcNAc
Outline: as §1

[37] = biological target: Man(a1-3)[Man(a1-6)]Man
Outline: as §1

[38] = biological target: Man(a1-3)[Man(a1-6)]Man(a1-6)[Man(a1-2)Man(a1-3)]Man(b1-4)GlcNAc(b1-4)GlcNAc
Outline: as §1

[39] = biological target: Man(a1-3)[Man(a1-6)]Man(a1-6)[Man(a1-3)]Man
Outline: as §1

[40] = biological target: Man(a1-3)[Man(a1-6)]Man(a1-6)[Man(a1-3)]Man(b1-4)GlcNAc(b1-4)GlcNAc
Outline: as §1

[41] = biological target: Man(a1-3)[Man(a1-6)]Man(b1-4)GlcNAc(b1-4)GlcNAc
Outline: as §1

[42] = biological target: Man(a1-3)[Man(a1-6)]Man(b1-4)GlcNAc(b1-4)[Fuc(a1-6)]GlcNAc
Outline: as §1

[43] = biological target: Man(a1-6)Man
Outline: as §1

[44] = biological target: Man(b1-4)GlcNAc
Outline: as §1

[45] = biological target: MurNAc(b1-4)GlcNAc
Outline: as §1

B1: CBP21 (Serratia marcescens), O83009 (protein)
chain: MNKTSRTLLSLGLLSAAMFGVSQQANAHGYVESPASRAYQCKLQLNTQCGSVQAEPQSVEGLKGFPQAGPADGHIASADKSTFFELDQQTPTRWNKLNLKTGPNSFTWKLTARHSTTSWRYFITKPNWDASQPLTRASFDLTPFCQFNDGGAIPAAQVTHQCNIPADRSGSHVILAVWDIADTANAFYQAIDVNLSK
[1]
  glycan array binding signal (z-score): -0.172
[2]
  glycan array binding signal (z-score): 0.179
[3]
  glycan array binding signal (z-score): 0.51
[4]
  glycan array binding signal (z-score): 0.778
[5]
  glycan array binding signal (z-score): 0.204
[6]
  glycan array binding signal (z-score): -0.49
[7]
  glycan array binding signal (z-score): 0.949
[8]
  glycan array binding signal (z-score): -0.565
[9]
  glycan array binding signal (z-score): -0.429
[10]
  glycan array binding signal (z-score): -1.24
[11]
  glycan array binding signal (z-score): -0.334
[12]
  glycan array binding signal (z-score): -0.268
[13]
  glycan array binding signal (z-score): -0.123
[14]
  glycan array binding signal (z-score): -0.27
[15]
  glycan array binding signal (z-score): -0.647
[16]
  glycan array binding signal (z-score): -0.302
[17]
  glycan array binding signal (z-score): -0.484
[18]
  glycan array binding signal (z-score): -0.466
[19]
  glycan array binding signal (z-score): -0.678
[20]
  glycan array binding signal (z-score): -0.468
[21]
  glycan array binding signal (z-score): -0.158
[22]
  glycan array binding signal (z-score): -1.11
[23]
  glycan array binding signal (z-score): 0.313
[24]
  glycan array binding signal (z-score): -0.897
[25]
  glycan array binding signal (z-score): -0.375
[26]
  glycan array binding signal (z-score): -1.2
[27]
  glycan array binding signal (z-score): -0.612
[28]
  glycan array binding signal (z-score): -0.42
[29]
  glycan array binding signal (z-score): 0.108
[30]
  glycan array binding signal (z-score): -0.532
[31]
  glycan array binding signal (z-score): -0.063
[32]
  glycan array binding signal (z-score): -0.091
[33]
  glycan array binding signal (z-score): -1.58
[34]
  glycan array binding signal (z-score): -0.23
[35]
  glycan array binding signal (z-score): -0.748
[36]
  glycan array binding signal (z-score): -1.28
[37]
  glycan array binding signal (z-score): -0.045
[38]
  glycan array binding signal (z-score): 0.228
[39]
  glycan array binding signal (z-score): -0.531
[40]
  glycan array binding signal (z-score): -1.08
[41]
  glycan array binding signal (z-score): 0.015
[42]
  glycan array binding signal (z-score): 0.113
[43]
  glycan array binding signal (z-score): -0.224
[44]
  glycan array binding signal (z-score): -0.727
[45]
  glycan array binding signal (z-score): -0.161
